{"source": "patent US7655676B2", "about": "“Use of amide derivative of GE 2270 factor A3 for the treatment of acne” (Naicons S.C.A.R.L., priority 2002, dated 2010)", "key": {"[1]": {"system": "clinical isolates of P. acnes displaying antibiotic-resistant phenotypes", "test": "MIC against clinical isolates of P. acnes displaying antibiotic-resistant phenotypes (Table 2)", "type": "cell-based, Propionibacterium acnes", "conditions": "for Cumul. %: resistant isolates"}, "[2]": {"system": "clinical isolates of P. acnes displaying antibiotic-sensitive phenotypes", "test": "MIC against clinical isolates of P. acnes displaying antibiotic-sensitive phenotypes (Table 3)", "type": "cell-based, Propionibacterium acnes", "conditions": "for Cumul. %: sensitive isolates"}, "[3]": {"conditions": "Cutibacterium acnes, 15 isolates resistant to clindamycin or erythromycin"}}}
{"molecule": "CCC[C@@H]1C[C@@H](C(=O)N[C@@H]([C@H]2O[C@H](SC)[C@H](O)[C@@H](O)[C@H]2O)[C@H](C)Cl)N(C)C1", "note": "[Clindamycin]", "values": [{"measurement": "MIC50", "setting": "[1]; [3]", "result": 64, "unit": "µg/mL"}, {"measurement": "MIC90", "setting": "[1]; [3]", "result": 256, "unit": "µg/mL"}, {"measurement": "N° isolates", "setting": "[1]; resistant isolates with MIC 4 μg/ml", "result": 3}, {"measurement": "N° isolates", "setting": "[1]; resistant isolates with MIC 8 μg/ml", "result": 2}, {"measurement": "N° isolates", "setting": "[1]; resistant isolates with MIC 16 μg/ml", "result": 0}, {"measurement": "N° isolates", "setting": "[1]; resistant isolates with MIC 32 μg/ml", "result": 0}, {"measurement": "N° isolates", "setting": "[1]; resistant isolates with MIC 64 μg/ml", "result": 8}, {"measurement": "N° isolates", "setting": "[1]; resistant isolates with MIC 128 μg/ml", "result": 0}, {"measurement": "N° isolates", "setting": "[1]; resistant isolates with MIC 256 μg/ml", "result": 2}, {"measurement": "Cumul. %", "setting": "[1]; cumulative at MIC 4 μg/ml", "result": 20, "unit": "%"}, {"measurement": "Cumul. %", "setting": "[1]; cumulative at MIC 8 μg/ml", "result": 33, "unit": "%"}, {"measurement": "Cumul. %", "setting": "[1]; cumulative at MIC 64 μg/ml", "result": 87, "unit": "%"}, {"measurement": "Cumul. %", "setting": "[1]; cumulative at MIC 256 μg/ml", "result": 100, "unit": "%"}, {"measurement": "MIC50", "setting": "[2]; Cutibacterium acnes", "result": 0.125, "unit": "µg/mL"}, {"measurement": "MIC90", "setting": "[2]; Cutibacterium acnes, 5 isolates sensitive to erythromycin and clindamycin", "result": 0.5, "unit": "µg/mL"}, {"measurement": "N° isolates", "setting": "[2]; sensitive isolates with MIC 0.125 μg/ml", "result": 3}, {"measurement": "N° isolates", "setting": "[2]; sensitive isolates with MIC 0.25 μg/ml", "result": 1}, {"measurement": "N° isolates", "setting": "[2]; sensitive isolates with MIC 0.5 μg/ml", "result": 1}, {"measurement": "Cumul. %", "setting": "[2]; cumulative at MIC 0.125 μg/ml", "result": 60, "unit": "%"}, {"measurement": "Cumul. %", "setting": "[2]; cumulative at MIC 0.25 μg/ml", "result": 80, "unit": "%"}, {"measurement": "Cumul. %", "setting": "[2]; cumulative at MIC 0.5 μg/ml", "result": 100, "unit": "%"}]}
